According to the supplement of paper PMC10849652:
This is one part of the list.

Protein sequences, listed by entry. Tags and fused reporters are not part of them. Lines headed by an entry give the natural chain unless they say otherwise; changes in a name come on top.
UniProt Q09028, whole entry, looked up: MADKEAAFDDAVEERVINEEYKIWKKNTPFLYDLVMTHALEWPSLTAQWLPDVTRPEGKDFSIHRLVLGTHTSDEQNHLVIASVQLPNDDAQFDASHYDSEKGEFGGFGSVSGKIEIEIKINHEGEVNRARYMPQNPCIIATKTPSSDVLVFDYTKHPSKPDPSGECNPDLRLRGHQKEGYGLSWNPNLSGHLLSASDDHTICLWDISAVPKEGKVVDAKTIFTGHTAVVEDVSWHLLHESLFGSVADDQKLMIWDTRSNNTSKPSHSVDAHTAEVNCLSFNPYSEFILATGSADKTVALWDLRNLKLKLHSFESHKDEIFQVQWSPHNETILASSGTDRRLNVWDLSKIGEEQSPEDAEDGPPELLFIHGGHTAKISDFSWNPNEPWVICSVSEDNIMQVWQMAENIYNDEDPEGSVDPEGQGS
UniProt Q9UKL0, whole entry, looked up: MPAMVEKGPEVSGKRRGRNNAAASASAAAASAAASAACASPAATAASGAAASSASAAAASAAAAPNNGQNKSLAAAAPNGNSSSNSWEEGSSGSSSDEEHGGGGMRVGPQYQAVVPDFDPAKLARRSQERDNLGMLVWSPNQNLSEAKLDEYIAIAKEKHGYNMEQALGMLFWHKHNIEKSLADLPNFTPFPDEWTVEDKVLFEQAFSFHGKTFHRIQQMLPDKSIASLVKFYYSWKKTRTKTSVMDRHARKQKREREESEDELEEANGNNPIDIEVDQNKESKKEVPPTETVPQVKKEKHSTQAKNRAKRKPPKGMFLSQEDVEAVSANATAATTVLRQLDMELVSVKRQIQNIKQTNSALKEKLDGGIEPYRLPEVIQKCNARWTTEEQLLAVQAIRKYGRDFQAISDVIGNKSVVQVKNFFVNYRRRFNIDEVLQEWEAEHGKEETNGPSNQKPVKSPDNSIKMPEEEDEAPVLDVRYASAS
UniProt Q96EV2: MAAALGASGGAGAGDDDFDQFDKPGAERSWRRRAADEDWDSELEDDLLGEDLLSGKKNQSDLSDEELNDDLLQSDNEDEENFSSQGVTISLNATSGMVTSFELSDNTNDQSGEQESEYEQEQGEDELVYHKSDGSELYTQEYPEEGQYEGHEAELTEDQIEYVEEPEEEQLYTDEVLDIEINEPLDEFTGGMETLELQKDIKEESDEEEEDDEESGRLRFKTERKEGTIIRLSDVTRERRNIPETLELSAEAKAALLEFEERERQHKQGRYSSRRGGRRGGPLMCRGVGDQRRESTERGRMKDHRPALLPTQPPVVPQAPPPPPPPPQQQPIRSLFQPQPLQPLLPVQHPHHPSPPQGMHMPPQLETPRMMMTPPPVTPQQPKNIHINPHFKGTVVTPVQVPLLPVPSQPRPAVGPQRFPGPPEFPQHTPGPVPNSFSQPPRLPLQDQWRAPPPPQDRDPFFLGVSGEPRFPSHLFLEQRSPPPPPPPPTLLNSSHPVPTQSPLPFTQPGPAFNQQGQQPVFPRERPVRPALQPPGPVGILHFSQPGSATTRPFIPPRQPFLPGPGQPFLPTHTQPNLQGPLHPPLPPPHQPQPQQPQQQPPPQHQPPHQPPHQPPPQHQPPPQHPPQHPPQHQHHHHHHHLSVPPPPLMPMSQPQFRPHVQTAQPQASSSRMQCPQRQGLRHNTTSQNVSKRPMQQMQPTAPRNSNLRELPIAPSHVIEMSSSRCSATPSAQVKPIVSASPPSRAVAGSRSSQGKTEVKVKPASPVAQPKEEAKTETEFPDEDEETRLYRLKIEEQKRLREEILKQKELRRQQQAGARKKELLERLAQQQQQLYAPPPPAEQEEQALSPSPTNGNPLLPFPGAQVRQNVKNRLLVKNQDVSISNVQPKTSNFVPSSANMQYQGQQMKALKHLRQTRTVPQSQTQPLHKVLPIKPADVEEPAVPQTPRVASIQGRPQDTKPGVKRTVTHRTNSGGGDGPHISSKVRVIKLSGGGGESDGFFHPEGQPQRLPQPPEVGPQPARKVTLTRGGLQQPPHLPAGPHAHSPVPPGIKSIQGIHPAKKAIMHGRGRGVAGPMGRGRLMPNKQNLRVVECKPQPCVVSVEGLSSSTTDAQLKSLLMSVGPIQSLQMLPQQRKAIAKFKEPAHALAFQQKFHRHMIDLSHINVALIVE
UniProt Q9NW13: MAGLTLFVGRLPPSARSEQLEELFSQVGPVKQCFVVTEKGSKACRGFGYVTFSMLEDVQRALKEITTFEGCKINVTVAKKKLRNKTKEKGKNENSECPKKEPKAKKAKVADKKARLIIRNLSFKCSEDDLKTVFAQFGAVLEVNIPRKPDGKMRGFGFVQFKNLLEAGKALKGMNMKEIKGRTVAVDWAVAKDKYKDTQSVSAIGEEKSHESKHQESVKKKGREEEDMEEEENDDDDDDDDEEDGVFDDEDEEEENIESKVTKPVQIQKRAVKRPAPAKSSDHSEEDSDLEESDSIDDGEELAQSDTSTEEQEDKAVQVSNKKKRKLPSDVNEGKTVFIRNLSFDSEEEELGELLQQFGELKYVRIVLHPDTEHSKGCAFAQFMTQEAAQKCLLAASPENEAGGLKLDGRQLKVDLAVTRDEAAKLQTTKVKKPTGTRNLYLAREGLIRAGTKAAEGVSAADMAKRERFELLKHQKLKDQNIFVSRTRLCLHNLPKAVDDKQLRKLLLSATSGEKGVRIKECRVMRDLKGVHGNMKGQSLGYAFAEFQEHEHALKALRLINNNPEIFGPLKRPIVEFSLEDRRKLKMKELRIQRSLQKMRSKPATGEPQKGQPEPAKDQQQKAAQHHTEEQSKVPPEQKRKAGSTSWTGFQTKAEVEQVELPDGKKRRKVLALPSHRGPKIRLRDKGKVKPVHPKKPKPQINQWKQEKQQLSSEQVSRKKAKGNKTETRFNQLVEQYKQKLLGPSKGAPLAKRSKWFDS
UniProt Q14498: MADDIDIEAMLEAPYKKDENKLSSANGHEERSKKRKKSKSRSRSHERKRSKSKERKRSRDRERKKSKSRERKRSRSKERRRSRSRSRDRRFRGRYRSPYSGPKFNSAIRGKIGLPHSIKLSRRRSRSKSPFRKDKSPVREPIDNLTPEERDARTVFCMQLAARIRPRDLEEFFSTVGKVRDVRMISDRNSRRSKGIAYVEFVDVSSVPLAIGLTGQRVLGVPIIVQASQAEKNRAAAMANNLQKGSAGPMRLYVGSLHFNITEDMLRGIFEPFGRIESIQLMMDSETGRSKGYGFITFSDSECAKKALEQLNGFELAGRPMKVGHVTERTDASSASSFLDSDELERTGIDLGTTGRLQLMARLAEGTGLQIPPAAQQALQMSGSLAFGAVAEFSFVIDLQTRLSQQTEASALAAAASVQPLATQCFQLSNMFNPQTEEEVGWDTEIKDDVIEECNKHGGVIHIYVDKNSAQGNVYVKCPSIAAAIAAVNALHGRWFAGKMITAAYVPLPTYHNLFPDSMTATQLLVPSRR
UniProt O00287: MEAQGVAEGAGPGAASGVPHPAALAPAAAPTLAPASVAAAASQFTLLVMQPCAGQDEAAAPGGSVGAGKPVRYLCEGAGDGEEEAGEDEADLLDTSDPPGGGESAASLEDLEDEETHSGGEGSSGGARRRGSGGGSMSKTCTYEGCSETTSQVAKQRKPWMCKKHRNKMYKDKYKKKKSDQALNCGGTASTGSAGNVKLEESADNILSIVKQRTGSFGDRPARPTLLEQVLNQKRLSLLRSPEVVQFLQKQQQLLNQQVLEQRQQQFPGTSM
UniProt Q14644: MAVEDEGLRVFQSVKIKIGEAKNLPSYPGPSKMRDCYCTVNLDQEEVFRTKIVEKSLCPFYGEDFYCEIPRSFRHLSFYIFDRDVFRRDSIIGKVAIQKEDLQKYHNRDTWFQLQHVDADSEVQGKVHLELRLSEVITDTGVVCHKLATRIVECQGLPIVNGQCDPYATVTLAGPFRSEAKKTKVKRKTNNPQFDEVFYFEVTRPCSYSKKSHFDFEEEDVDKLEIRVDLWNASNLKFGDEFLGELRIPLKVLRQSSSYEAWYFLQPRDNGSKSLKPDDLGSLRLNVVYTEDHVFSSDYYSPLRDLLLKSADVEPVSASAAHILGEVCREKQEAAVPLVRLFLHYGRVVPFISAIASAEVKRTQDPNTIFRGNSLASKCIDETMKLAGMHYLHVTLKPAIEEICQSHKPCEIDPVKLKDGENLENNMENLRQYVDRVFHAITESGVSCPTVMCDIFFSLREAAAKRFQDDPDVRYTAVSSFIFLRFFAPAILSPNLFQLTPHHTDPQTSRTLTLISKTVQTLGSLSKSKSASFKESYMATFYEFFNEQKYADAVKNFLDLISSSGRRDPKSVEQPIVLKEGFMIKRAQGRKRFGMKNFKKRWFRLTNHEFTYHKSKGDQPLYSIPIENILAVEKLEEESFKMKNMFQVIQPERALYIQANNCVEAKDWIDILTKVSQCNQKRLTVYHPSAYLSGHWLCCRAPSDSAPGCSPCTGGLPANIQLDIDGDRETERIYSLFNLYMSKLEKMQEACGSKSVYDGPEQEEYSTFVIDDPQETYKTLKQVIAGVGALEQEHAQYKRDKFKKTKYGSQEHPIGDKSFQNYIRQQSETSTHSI
UniProt P98179: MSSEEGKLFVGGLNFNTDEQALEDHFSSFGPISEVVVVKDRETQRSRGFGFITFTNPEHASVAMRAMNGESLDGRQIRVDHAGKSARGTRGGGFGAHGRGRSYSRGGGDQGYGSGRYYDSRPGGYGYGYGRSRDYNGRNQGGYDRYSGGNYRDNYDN
UniProt Q96D15: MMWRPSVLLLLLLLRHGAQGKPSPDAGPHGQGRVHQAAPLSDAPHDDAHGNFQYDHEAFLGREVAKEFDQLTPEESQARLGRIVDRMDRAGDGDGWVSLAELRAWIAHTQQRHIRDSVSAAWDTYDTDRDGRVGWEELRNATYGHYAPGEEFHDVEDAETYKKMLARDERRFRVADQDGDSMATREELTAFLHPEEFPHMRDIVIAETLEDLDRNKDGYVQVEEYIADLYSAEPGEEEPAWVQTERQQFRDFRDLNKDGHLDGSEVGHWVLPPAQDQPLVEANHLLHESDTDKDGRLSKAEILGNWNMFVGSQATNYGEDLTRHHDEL
UniProt Q8TAC1: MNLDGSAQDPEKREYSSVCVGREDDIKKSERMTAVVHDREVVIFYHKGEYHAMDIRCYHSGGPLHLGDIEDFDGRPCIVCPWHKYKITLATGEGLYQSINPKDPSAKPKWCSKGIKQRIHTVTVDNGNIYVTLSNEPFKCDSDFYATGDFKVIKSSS
UniProt P20936: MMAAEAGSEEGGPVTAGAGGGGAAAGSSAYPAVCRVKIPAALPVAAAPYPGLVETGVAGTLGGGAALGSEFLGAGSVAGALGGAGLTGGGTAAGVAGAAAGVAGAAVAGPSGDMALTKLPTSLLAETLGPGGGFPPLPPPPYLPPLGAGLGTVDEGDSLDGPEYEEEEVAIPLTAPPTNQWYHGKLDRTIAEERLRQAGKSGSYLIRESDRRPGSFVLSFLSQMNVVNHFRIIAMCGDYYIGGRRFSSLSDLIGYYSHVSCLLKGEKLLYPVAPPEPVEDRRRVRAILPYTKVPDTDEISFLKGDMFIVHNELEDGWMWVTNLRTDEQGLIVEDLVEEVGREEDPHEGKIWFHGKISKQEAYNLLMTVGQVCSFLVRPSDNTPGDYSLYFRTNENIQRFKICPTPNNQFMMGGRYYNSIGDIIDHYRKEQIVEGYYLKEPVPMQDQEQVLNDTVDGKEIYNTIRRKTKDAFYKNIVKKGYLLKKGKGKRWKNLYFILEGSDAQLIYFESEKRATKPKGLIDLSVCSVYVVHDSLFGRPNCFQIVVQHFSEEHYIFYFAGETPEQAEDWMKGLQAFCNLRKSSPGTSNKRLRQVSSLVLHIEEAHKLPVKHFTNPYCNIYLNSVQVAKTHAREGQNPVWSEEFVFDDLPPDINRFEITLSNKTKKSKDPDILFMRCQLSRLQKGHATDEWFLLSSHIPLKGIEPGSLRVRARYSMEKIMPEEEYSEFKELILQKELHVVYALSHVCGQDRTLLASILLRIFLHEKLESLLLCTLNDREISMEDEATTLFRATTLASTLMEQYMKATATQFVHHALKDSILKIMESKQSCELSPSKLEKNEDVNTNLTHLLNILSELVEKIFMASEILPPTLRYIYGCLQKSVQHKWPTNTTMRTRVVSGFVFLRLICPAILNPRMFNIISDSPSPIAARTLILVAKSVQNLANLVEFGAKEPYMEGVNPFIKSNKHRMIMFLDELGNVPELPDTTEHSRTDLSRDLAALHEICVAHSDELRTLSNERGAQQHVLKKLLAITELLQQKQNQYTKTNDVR
UniProt P38159: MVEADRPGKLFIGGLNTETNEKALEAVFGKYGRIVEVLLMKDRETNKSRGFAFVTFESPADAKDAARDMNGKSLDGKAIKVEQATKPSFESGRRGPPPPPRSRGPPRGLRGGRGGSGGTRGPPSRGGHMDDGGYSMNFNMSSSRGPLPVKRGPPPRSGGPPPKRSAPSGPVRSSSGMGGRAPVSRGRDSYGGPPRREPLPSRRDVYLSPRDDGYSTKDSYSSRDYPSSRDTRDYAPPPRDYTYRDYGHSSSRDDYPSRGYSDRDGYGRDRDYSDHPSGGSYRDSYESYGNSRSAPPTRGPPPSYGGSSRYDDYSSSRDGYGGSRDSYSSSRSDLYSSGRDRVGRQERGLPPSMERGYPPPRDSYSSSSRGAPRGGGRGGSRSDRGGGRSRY

These targets were tested with CS(=O)(=O)CCNCc1ccc(-c2ccc3ncnc(Nc4ccc(OCc5cccc(F)c5)c(Cl)c4)c3c2)o1 [lapatinib] (assay: log2 fold change, soluble protein after heating vs DMSO (PISA); higher = thermal stabilisation; K562 lysate, 10 uM; active = over 0.2 and 3.5 SD of the protein, either way, in both replicates (recomputed)).
Outline: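 A 30 min treatment with 10 μM compound was applied to crude K562 extract at 1 mg/mL protein in PBS pH 7.4 with 1 mM MgCl2. Heating for 3 min spanned 48°C-58°C, after which aliquots were pooled, adjusted to 0.5% NP-40 at 4°C and spun at 21,000xg for 90 min. TMTpro 16plex LC-MS/MS of the supernatant, with channel sums equalised, gave values recorded as log-two fold change in thermal stability against solvent controls, from duplicates.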

log2 fold change, inactive:
RBL1 (UniProt P28749) 0.037
RBBP4 (UniProt Q09028) 0.007
RCOR1 (UniProt Q9UKL0) -0.056
RBM33 (UniProt Q96EV2) 0.016
RFX1 (UniProt P22670) -0.031
RBM28 (UniProt Q9NW13) -0.012
RAVER1 (UniProt E9PAU2) 0.03
RCSD1 (UniProt Q6JBY9) 0.013
RBM39 (UniProt Q14498) 0.066
RFT1 (UniProt Q96AA3) -0.008
RENBP (UniProt P51606) 0.007
RECQL5 (UniProt O94762) 0.277
RELN (UniProt P78509) 0.047
RFXAP (UniProt O00287) -0.061
RASA3 (UniProt Q14644) 0.08
REPS1 (UniProt Q96D71) 0.008
RBM3 (UniProt P98179) -0.104
RCN3 (UniProt Q96D15) -0.03
RASA2 (UniProt Q15283) 0.026
RFESD isoform 2 (UniProt Q8TAC1) 0.008
RBM42 (UniProt Q9BTD8) 0.05
RASA1 (UniProt P20936) -0.005
RBMX (UniProt P38159) 0.002
RCOR3 isoform 3 (UniProt Q9P2K3) 0.016

Pulled one by one from above:
log2 fold change, inactive:
RCN3 (UniProt Q96D15) -0.03
RASA2 (UniProt Q15283) 0.026
